According to publication PMC10163288:
The list shows a part of the results.

B1: il2ra_site1_3nfp_normal_mot_6fb122be6cd73e00adad15538fff8bb1_0001_1_000000019_0001_17_32_H_._HHH_b2_07001_0001_0000100003_0000001_0_af2pred_0001_af2pred (protein)
chain: SSSSSSDEYLEEIVERAQKLNPEYEEELERLLEEAKREGDARLLRELIQLAARLLLEGSSSSSSS
B2: il2ra_site2_3nfp_sap_19_mot_HHH_b1_03259_000000044_0001_22_38_H_._fade74b90712e35ca62446d022fe2564_0001_1_0001_0000100016_0000001_0_0001 (protein)
chain: SSSSDEEEIEKEFEKEIRRLYEEGNPEEARRVLAELSRLAWELDDIELYEVVAELLLMLARSSSS
B3: il2ra_site1_2b5i_normal_mot_HHH_b2_04910_000000118_0001_1_19_H_._HHH_b1_04383_0001_0000600015_0000001_0_af2pred_dldesign_0_af2pred (protein)
chain: SSSSDAEALREAERLFLKADELFQAGKPEEAKKLLEKALELAKKAGANSLTKIIESALKELSSSS
B4: il2ra_site1_1z92_normal_mot_7f39e2d7389de0c2f60e905c27398b6a_0001_1_000000104_0001_37_51_H_._6b3396789ca6d50aa04d7297b35efea3_0001_0001_0000200012_0000001_0_af2 … (protein)
chain: SIEEVLEDARRFAGGDPEKAARFIVKLMEASAGDPEEAEKDLRELVEEVGDPILRRALELLEERK
B5: il2ra_site2_3nfp_sap_25_mot_HHH_b1_04797_000000295_0001_41_55_H_._HHH_b1_05558_0001_0000100011_0000001_1_0001_af2pred_0001_af2pred (protein)
chain: SSSSSSDVEELLKEVEKLIEEGDEEEAKKALEEAAQLAVELGDFELFAKIAELLRELLSSSSSSS
B6: il2ra_site1_1z92_sap_14_mot_HHH_b2_01902_af2_000000252_0001_25_40_H_._a1d55611ccd54d2a00b8f792ef18dabe_0001_0001_0000200017_0000001_0_0001_af2pred_0001_af2pred_ … (protein)
chain: SELLKRQIEKRLEAGDLEAARKIIERFLRATGDPNLERILELIERYEKEKDPKLLEEIKQLIEEL
B7: il2ra_site1_2b5i_normal_mot_HHH_b1_00432_000000039_0001_1_18_H_._HHH_b1_04984_0001_0000300017_0000001_0_af2pred_dldesign_0_af2pred (protein)
chain: SSSSSDVDARVDELFQRALRLWREGRKEEARRLLEEALELLEKANKKKKLAEIRKLLELLSSSSS
B8: il2ra_site1_2b5i_sap_16_mot_HHH_b2_03161_000000036_0001_1_18_H_._HHH_b1_04838_af2_0001_0000100002_0000001_0_0001_af2pred_dldesign_0_af2pred (protein)
chain: SSSSSDPLAKAKAAIKEAEELAKKDKRKAIELLEKAYKEAGAANNDEAEKLLEDKFKELLSSSSS
B9: il2ra_site2_3nfp_normal_mot_49a7c9051cacde34b31d84fabeb7f3ea_0001_af2_000000030_0001_39_52_H_._HHH_b2_01636_af2_0001_0000100007_0000001_0 (protein)
chain: SSSSDLEEEVRKLLEEVEELLKEGNRFEALELLLRAHKLAVENDNPELVRKELELYAELASSSSS
B10: il2ra_site2_3nfp_sap_25_mot_HHH_b1_03818_000000217_0001_1_20_H_._HHH_b2_04458_af2_0001_0000300006_0000001_0_0001 (protein)
chain: SSSSDEERLEELLRILEELLHTDEEEFRRVLAEASHLAFEAGDSEVFFRLAELAYKLLQLSSSSS
B11: il2ra_site1_3nfp_normal_mot_HHH_b1_01231_af2_000000170_0001_1_16_H_._HHH_b1_04617_0001_0000100001_0000001_0_af2pred_0001_af2pred_1 (protein)
chain: SSSSDREEALKLFREAAQAALEGNPEEARELLEEAEELAERAGNEILLKRIRNALRVAKLGSSSS
B12: il2ra_site2_3nfp_normal_mot_HHH_b1_04781_af2_000000057_0001_1_18_H_._HHH_b2_00872_0001_0000900046_0000001_1 (protein)
chain: SSSSDKESLEEAIRMALDSAEALNDEEVFERIRELLEEFKEEGDPRYTLEAYELALEAYRKSSSS
B13: il2ra_site2_2erj_sap_21_mot_ems_3hM_329_000000017_0001_1_19_H_._HHH_b1_02696_0001_0000100008_0000001_0_0001 (protein)
chain: SSSSDWLHKLYRLALELLRLVAEGDEERAQELIEELKELAEETDSPNVKEIVEALERKLNSSSSS
B14: il2ra_site1_1z92_sap_19_mot_HHH_b2_03511_af2_000000113_0001_41_54_H_._HHH_b2_01993_af2_0001_0000400041_0000001_0_0001 (protein)
chain: DEAEEVIERAIEAVERGDPEEVRRLLEKLIEHTGDPALRFLLEVLERKLEAGNYKAARAILEKSR
B15: il2ra_site2_2erj_normal_mot_af86707857d369f3e1d85dcabc5f9321_0001_000000201_0001_14_29_H_._HHH_b2_07982_0001_0000700014_0000001_0 (protein)
chain: SSSSSDEEREEAEELIEEARQIPDPHRAAAVAIDAAHLAARANDEELLEEIRELFVRIYESSSSS
B16: il2ra_site1_1z92_sap_20_mot_HHH_b1_07431_000000213_0001_23_39_H_._048aa698b66f5fcbf1a9fbadf753f27c_0001_af2_0001_0000100002_0000001_0_0001_af2pred_0001_af2pred_ … (protein)
chain: NKMEELVEQILKLAGSPEKAVRFVERFAKLAERRGDPETAEELLEVAAKILGDPRLEELLEEIRK
B17: il2ra_site2_3nfp_sap_28_mot_HHH_b1_07198_000000084_0001_1_18_H_._ems_3hC_185_0001_0000100001_0000001_0_0001 (protein)
chain: SSSSDEEERLEELRERIEKLEKEGDRHEVAKLLIELTKIAAELNDEEAAKFVLRLYKELKSSSSS
B18: il2ra_site2_2erj_sap_15_mot_HHH_b1_06342_000000252_0001_1_18_H_._HHH_b2_02730_0001_0000200010_0000001_0_0001 (protein)
chain: SSSSSSSDWELFAEVAHRAWELGDFEVWSRVAELFYRYDREGDPEYREEAEELLEELRSSSSSSS
B19: il2ra_site1_2b5i_normal_mot_HHH_b1_00095_000000042_0001_1_14_H_._HHH_b1_08112_af2_0001_0000400045_0000001_0_af2pred_dldesign_0_af2pred (protein)
chain: SSSSSPVREEVERLIAEARALKAAGRRKEALETLERAHRLAAAADDEELQDEIDELAREVSSSSS
B20: il2ra_site2_3nfp_normal_mot_HHH_b1_07498_000000011_0001_1_19_H_._HHH_b2_02720_0001_0000200008_0000001_0_af2pred_0001_af2pred_1 (protein)
chain: SSSSDEEYRLAFLLALVKLAIEQNDPELVELALRRAEKLAKELNDEEVLRELEELEEKFNSSSSS
B21: il2ra_site2_2erj_normal_mot_HHH_b1_04491_000000173_0001_1_17_H_._HHH_b1_01387_0001_0000400008_0000001_0 (protein)
chain: SSSSSEEQEEAEELLEEIKKIPNPQEAAEVLLELARLAHESRDPEVHRIAWEALRYLARLSSSSS
B22: il2ra_site2_3nfp_normal_mot_2b1f115384cdfca4a5db2aa6683d1a54_0001_af2_000000285_0001_52_65_H_._0bcd393228a558932df86f9a4d776609_0001_af2_0001_0000200001_0000001 … (protein)
chain: DRELRRLAHELYERGDRDAAAVVILAIELLLEGVPPEEVKEILERAAKKAGVPPELIEQIEEAVE
B23: il2ra_site2_2erj_normal_mot_HHH_b2_03246_000000021_0001_20_36_H_._HHH_b1_02485_0001_0000200011_0000001_1_af2pred_0001_1_af2pred_swapped (protein)
chain: SSSDTEELAREAEEEARRLLEEGNPEEAFAVLLRAFQKLLELNDEEAEKIVHEVRQEVLERSSSS
B24: il2ra_site1_1z92_sap_12_mot_22370d59370c406a0c205a431f537cfa_0001_000000027_0001_1_14_H_._HHH_b2_07592_0001_0000500030_0000001_0_0001_af2pred_0001_af2pred (protein)
chain: SSSSSDIVAEFLIRHIERAIEQNNKESAERALRLLKKLAKAENDEKLEEIIEELEREVKSSSSSS

molecular target: il2ra, P01589; assay: yeast display titration

Apparent Kd, inactive:
B1 no binding seen, B2 7.16 to 19.5 µM, B3 no binding seen, B4 no binding seen, B5 no binding seen, B6 no binding seen, B7 no binding seen, B8 no binding seen, B9 no binding seen, B10 no binding seen, B11 no binding seen, B12 no binding seen, B13 > 0.00263 µM, B14 no binding seen, B15 no binding seen, B16 no binding seen, B17 no binding seen, B18 no binding seen, B19 no binding seen, B20 no binding seen, B21 no binding seen, B22 no binding seen, B23 no binding seen, B24 no binding seen
